Most of the hits are listed elsewhere, so they are rarer here than in the full data. Inconclusive results are not listed. Active and inactive are the calls of the source. The call rests on the fitted dose curve; in most records, active means well fitted inhibition curve with a large enough effect; inconclusive means small, poorly fitted or top-dose-only effect, or another doubt; inactive means no such curve, though single readings can be large or run the other way.
On the % scale 0 is the no-effect control and ±100 the full control effect.

A short description of the experiment: Primary qHTS for delayed death inhibitors of the malarial parasite plastid, 48 hour incubation. The settings on record: P. falciparum luciferase growth in erythrocytes; at 28.7 µM (top of the series). From the text:
The goal of this screen is to discover new antimalarial compounds that act by inhibiting the development of the apicoplast in the malarial parasite Plasmodium falciparum. The biochemical processes that make this organelle essential for erythrocytic stage parasites are not well understood. However, antibiotics such as azithromycin and tetracycline, which target the apicoplast translational machinery, have a potent antimalarial effect.
We have developed a cell-based assay that measures parasite growth based on the expression of an integrated copy of a firefly luciferase reporter. To detect small molecules that cause this "delayed death" phenotype, erythrocytes infected with the luciferase-expressing parasites were incubated with compounds for either one or two generations, corresponding to 48 and 96 hours, respectively. Compounds that inhibit parasite growth in the second generation, but not the first, should be enriched in antimalarials that target the apicoplast. Growth inhibition is detected by a decrease in luciferase activity.
Assay Provider: David Fidock and Eric Ekland, Columbia University
Keywords: NIH Roadmap, MLPCN, MLI, MLSMR, qHTS, NCGC, qHTS, malaria, luciferase, viability
Four microliters of culture medium (RPMI 1640 with 0.5% w/v Albumax (GIBCO), 24 mM sodium bicarbonate and 10 ug/mL gentamycin) were dispensed by a Multi-drop Combi into white solid 1536-well plates (Grenier) and 23 nL compound was added by a pin tool. Four microliters of infected erythrocytes (2% hematocrit, 0.1% parasitemia final concentration) in culture medium were dispensed and the plates incubated for 48 hours at 37 C in 5% CO2. Two microliters of luciferase detection reagent was added and luminescence was detected by a ViewLux (PerkinElmer) reader.
In general terms: Quantitative high-throughput screening tests each substance at several concentrations.
With `O=C1CC(c2ccccc2)Oc2cc(O)ccc21` (stereo not drawn), the activity change, negative = inhibition was inactive: 30.6%.

`O=c1ccc2ccc(OCc3ccccc3)cc2o1`: the activity change, negative = inhibition is inactive: 91%.

For `Cc1cc(=O)oc2cc(OCc3ccccc3)ccc12`, the activity change, negative = inhibition is inactive: 90.7%.

Source of the values: PubChem BioAssay AID504832 (National Center for Advancing Translational Sciences (NCATS), 2011).
